Experimental data taken from patent publication US20260193369A1.
These are yes or no findings as the source states them, for the method shown. Some entries that bind do so weakly or less than the wild type.

Biological target: T1, Human IL-33 (REGN3931) (human) (UniProt O95760)
T1 sequence: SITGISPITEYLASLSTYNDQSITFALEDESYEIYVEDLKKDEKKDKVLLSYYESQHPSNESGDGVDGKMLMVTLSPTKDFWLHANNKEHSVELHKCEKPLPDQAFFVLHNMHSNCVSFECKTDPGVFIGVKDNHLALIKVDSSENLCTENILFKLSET
Test: antigen-coated sandwich ELISA, detection with anti-human IgG4

B1: H4H9675P (antibody, human IgG4, V domains shown)
VH: EVQLVESGGNLEQPGGSLRLSCTASGFTFSRSAMNWVRRAPGKGLEWVSGISGSGGRTYYADSVKGRFTISRDNSKNTLYLQMNSLSAEDTAAYYCAKDSYTTSWYGGMDVWGHGTTVTVSS
VL: DIQMTQSPSSVSASVGDRVTITCRASQGIFSWLAWYQQKPGKAPKLLIYAASSLQSGVPSRFSGSGSGTDFTLTISSLQPEDFAIYYCQQANSVPITFGQGTRLEIK
  binding: binds
